Experimental data reported in PubChem BioAssay AID540276 (National Center for Advancing Translational Sciences (NCATS), 2011).
Where “and” joins values, the source holds several entries; their conditions need not be identical. Equal values may be shown once. In all, about 300,000 compounds went through this assay and about 5,400 (1.8%) were called active. Inconclusive means that the source gave no clear call. Such entries were picked first, then a sample of the others. The call rests on the fitted dose curve; tested in HEK293 cells. Potencies of inconclusive entries are doubtful fits and often do not repeat.

Assay: qHTS for inhibitors of binding or entry into cells for Marburg Virus
Conditions: Marburg virus pseudotyped entry inhibition, cell reporter; series mostly up to 37.8 µM
Potency means the concentration at half of the fitted maximal effect.

Row | Compound | Potency
1 | Cc1ccc(Cn2c(C(=O)Nc3cccc(Cl)c3)cc3sccc32)cc1 | inconclusive: 14.1 µM [inhibitor, single point]
2 | Cc1ccc(Nc2nc(N)nc(CSc3ncccn3)n2)cc1 | inconclusive: 29.1 µM [inhibitor, single point]
3 | O=C(NCCn1cc(SCc2ccc(F)cc2)c2ccccc21)c1c(F)cccc1F | inactive and inconclusive: 3.55 µM [inhibitor, partial curve, poor fit]
4 | CC1(c2ccccc2)NC(=O)N(CC(=O)Nc2cccc(C#N)c2)C1=O (configuration not stated) | inconclusive: 4.61 µM [inhibitor, single point]
5 | CC(OC(=O)CCCSc1nc2ccccc2s1)C(=O)NC(N)=O (configuration not stated) | inconclusive: 1.58 µM [activator, full curve, poor fit]
6 | Cc1ccc(C2c3c(-c4ccccc4O)n[nH]c3C(=O)N2CCCO)cc1 (configuration not stated) | inactive
7 | O=C(COc1ccccc1[N+](=O)[O-])N/N=C/c1ccc(OC(=O)c2ccco2)cc1 | inconclusive: 16.4 µM [activator, partial curve, poor fit]
8 | CCOc1ccc(NC(=O)C2Cc3ccccc3CN2S(=O)(=O)CC)cc1 (configuration not stated) | inactive
9 | CCc1cc(C)cc(OCCNC(=O)c2cncc(Br)c2)c1 | inconclusive: 35.5 µM [activator, partial curve, poor fit]
10 | CC1(N=Cc2cc(Cl)ccc2O)COP(=O)(Nc2ccccc2)OC1 (configuration not stated) | inactive
11 | COc1ccccc1-n1cc(-c2ccc(Br)cc2)[nH]c1=S | inconclusive: 7.08 µM [inhibitor, full curve, poor fit]
12 | FC(F)(F)c1nnc(-c2ccccc2)nc1Sc1ccc(Cl)cc1 | active: 14.6 µM
13 | CSc1ncc(Cl)c(C(=O)Nc2ccc(S(=O)(=O)N3CCC(C)CC3)cc2)n1 | inconclusive: 35.5 µM [inhibitor, single point]
14 | O=C(NCCS(=O)(=O)N1CCN(c2ccc(F)cc2)CC1)C12CC3CC(CC(C3)C1)C2 | inconclusive: 35.5 µM [inhibitor, single point]
15 | CCCCc1cc(=O)oc2cc(C)c3c(C)coc3c12 | inconclusive: 6.31 µM [inhibitor, partial curve, poor fit]
16 | O=C(NCC1CCCO1)c1cccc(F)c1 (configuration not stated) | inactive
17 | CCOC(=O)C1(CC2CC2)CCN(C(=O)c2cc(C)nc3ccc(CC)cc23)CC1 | inconclusive: 35.5 µM [inhibitor, partial curve, poor fit]
18 | O=C(Nc1ccccc1)Nc1nnc(/C=C/c2ccccc2Cl)s1 | inconclusive: 0.316 µM [activator, partial curve, poor fit]
19 | CCOc1cc(CNCCSc2nnnn2C)cc(Br)c1OCc1ccc(F)cc1 | inconclusive: 20 µM [inhibitor, single point]
20 | CCC(C)C(=O)Nc1nc(-c2ccc3c(c2)NC(=O)CO3)cs1 (configuration not stated) | inconclusive: 20.6 µM [inhibitor, single point]
21 | O=S(=O)(N1CCCCC1)N1CCN(c2ccc(F)cc2)CC1 | inactive

In another format: results already given
Row	Compound	Potency
8	CCOc1ccc(NC(=O)C2Cc3ccccc3CN2S(=O)(=O)CC)cc1 (configuration not stated)	inactive
9	CCc1cc(C)cc(OCCNC(=O)c2cncc(Br)c2)c1	inconclusive: 35.5 µM [activator, partial curve, poor fit]
10	CC1(N=Cc2cc(Cl)ccc2O)COP(=O)(Nc2ccccc2)OC1 (configuration not stated)	inactive
11	COc1ccccc1-n1cc(-c2ccc(Br)cc2)[nH]c1=S	inconclusive: 7.08 µM [inhibitor, full curve, poor fit]
12	FC(F)(F)c1nnc(-c2ccccc2)nc1Sc1ccc(Cl)cc1	active: 14.6 µM
13	CSc1ncc(Cl)c(C(=O)Nc2ccc(S(=O)(=O)N3CCC(C)CC3)cc2)n1	inconclusive: 35.5 µM [inhibitor, single point]
14	O=C(NCCS(=O)(=O)N1CCN(c2ccc(F)cc2)CC1)C12CC3CC(CC(C3)C1)C2	inconclusive: 35.5 µM [inhibitor, single point]
15	CCCCc1cc(=O)oc2cc(C)c3c(C)coc3c12	inconclusive: 6.31 µM [inhibitor, partial curve, poor fit]
16	O=C(NCC1CCCO1)c1cccc(F)c1 (configuration not stated)	inactive
17	CCOC(=O)C1(CC2CC2)CCN(C(=O)c2cc(C)nc3ccc(CC)cc23)CC1	inconclusive: 35.5 µM [inhibitor, partial curve, poor fit]
18	O=C(Nc1ccccc1)Nc1nnc(/C=C/c2ccccc2Cl)s1	inconclusive: 0.316 µM [activator, partial curve, poor fit]
19	CCOc1cc(CNCCSc2nnnn2C)cc(Br)c1OCc1ccc(F)cc1	inconclusive: 20 µM [inhibitor, single point]
20	CCC(C)C(=O)Nc1nc(-c2ccc3c(c2)NC(=O)CO3)cs1 (configuration not stated)	inconclusive: 20.6 µM [inhibitor, single point]

(more compounds)

Row | Compound | Potency
22 | CCSc1nnc(NC(=O)c2ccccn2)s1 | inconclusive: 11.2 µM [inhibitor, partial curve, poor fit]
23 | COc1ccc(C(=O)C2CCCN(Cc3cnc(C)s3)C2)cc1OC (configuration not stated) | inactive
24 | COC(=O)CC=C[C@@H](C)[C@@H](C=NO[C@H](C)c1cn([C@H](CO)Cc2ccccc2)nn1)NS(=O)(=O)c1ccc(C)cc1 | inactive
25 | CCSc1nc2ccccc2n1C(=O)/C=C\c1ccc(OC)c(OC)c1 | active: 12.6 µM
26 | CCOc1cc(C(=S)N2CCOCC2)ccc1OS(=O)(=O)c1ccccc1 | inactive
27 | O=C(COc1ccc(Cl)cc1)Nc1ncc([N+](=O)[O-])s1 | inconclusive: 3.55 µM [inhibitor, full curve, poor fit]
28 | Cc1ccc(NC(=O)CN2C(=O)N/C(=C/c3ccc(N4CCOCC4)cc3)C2=O)cc1 | inconclusive: 6.31 µM [activator, single point]
29 | CCOC(=O)c1ccc(NC(=O)CC2C(=O)N(c3cccc(OC)c3)C(=O)N2C2CCCCC2)cc1 (configuration not stated) | inconclusive: 35.5 µM [inhibitor, single point]
30 | CCc1ccc(-c2cc3c(=O)n(CC(=O)N4CCCCCC4)nc(C)n3n2)cc1 | inactive
31 | CCOc1ccccc1OCCCC(=O)Nc1ccc(OC)nc1 | inconclusive: 32.6 µM [inhibitor, partial curve, poor fit]
32 | CCCOc1cccc(-c2cc(C(=O)N/N=C/c3ccccn3)c3ccccc3n2)c1 | inconclusive: 7.94 µM [inhibitor, partial curve, poor fit]
33 | O=C(NCCCCCCNC(=O)c1cccs1)c1cccs1 | inactive
34 | C/C(N)=C(/C#N)C(=O)COC(=O)c1ccc(C)c(S(=O)(=O)N2CCCCC2)c1 | inactive
35 | O=c1c2c(-c3cccs3)csc2[nH]c(=S)n1-c1ccccc1 | inconclusive: 6.31 µM [inhibitor, single point]
36 | CCN1CCN(c2cc(C)c3cc(NC(=O)c4cccc(C(F)(F)F)c4)ccc3n2)CC1 | inconclusive: 17.8 µM [inhibitor, partial curve, poor fit]
37 | Cc1c(Cl)cccc1NC(=S)NCc1cccn1C | inconclusive: 35.5 µM [activator, single point]
38 | CN(CCOc1ccccc1)CC(O)COCc1ccccc1F (configuration not stated) | inconclusive: 35.5 µM [inhibitor, partial curve, poor fit]
39 | CC1=C(C(=O)Nc2ccc([N+](=O)[O-])cc2)C(c2cccc(C(F)(F)F)c2)NC(=S)N1c1ccccc1 (configuration not stated) | inconclusive: 29.1 µM [inhibitor, single point]
40 | CCS(=O)(=O)c1nc(S(=O)(=O)c2ccc(Cl)cc2)c(N2CCc3ccccc3C2)s1 | inconclusive: 8.91 µM [inhibitor, partial curve, poor fit]
41 | COCc1nnc(NC(=O)CCCCCN2C(=O)c3ccccc3C2=O)s1 | inconclusive: 0.013 µM [inhibitor, full curve, poor fit]
42 | O=C1NC(c2cccc3ccccc23)Nc2ccccc21 (configuration not stated) | inconclusive: 2.51 µM [inhibitor, partial curve, poor fit]
